No constants are given. Whether binding was seen depends on the method and setting. In cells and extracts the contact can be indirect. Here binding means that the protein was enriched with, or labelled near, the bait; the list need not be complete.
B1: Mei1 (protein, UniProt Q5TIA1 1-1274)
chain: MAVRQAATAGTPGPRREEEAALLFERAHYRHDPRWLLPVTPRLCLACALELLPDPGVSLVRKKHMLSCFQDALVRHTSLVTQLVSQDQRVCIHFISVLFGLLCSMEDGSVTDLCIEVLIQITTQLKLEQTIRCLLDECHKELCNMPSMRGSLATLTLLGKLVDAIPALADELVMEHGNLMEHLLRGLVYPSEGIQASVCYLYGKLYSSPVAAEMLSGHFREKLFPLFLSILDGAQTKELQINCLGLLRQLLKYDLFVSMIMNQDGLGESAKNIEGSSGNTSLPLVLKKLLLSRDETLQVASAHCITAVLVHSPAKHASAFIHADIPEFLFEHLSSSSEVLVWSSCNCLTLLVEEPLFFSKCHTVYGIEAVVRSLQGSLKMNNIELHKQGLLLFAEILTRQPEEIKLFTSSAMCRDAGRALQEAVSSPVLEVAAEALKATSAFLRKDHQSTPPVQYGELQALLEAMLNRCAEFSQTLLSRRPLGHASSRDSEKAILQRGKFLLSTLEGFRSACRLAIEFQSEPSAQENPFTAPSAKKEDTLEAFSEFLLSACDSLCIPMVMRHLEQTTHPALMEVFLSILHNLFVIVPHMKEKFSKKLASSSFIRLTLELKARFCSGLSHSALNQVCSNFLYYMCLNLLSAPEKTGPPSKEELSAVSELLQHGLPQISSRSPESLAFLSDRQYMEGAARQRQYCILLLFYLAYIHEDRFVSEAELFEAVQSFLLSLQDQGERPPLVVFKASIYLLAICQDKDNTLRETMVSAIRKFLEGIPDLQLVYTHHPLLLRFFLLYPELMSRYGHRVLELWFFWEESSYEELDDVTSAGQPALPASLVVLFQLLRSIPSILLILLDLIYSSPVDTAHKVLISLRTFLRRNEDIQVGGLIRGHFLLILQRLLVEHGASPSGASGNLPLLLSLLSLMQLRNVSEQELDSVAMKLLHQVSKLCGKCSPTDVDILQPSFNFLYWSLHQTTPSSQKRAAAVLLSSTGLMELLEKMLALTLAKADSPRTALLCSAWLLTASFSAQQHKGSLQVHQTLSVEMDQVLKALSFPKKKAALLSAAILCFLRTALRQSFSSALVALVPSGAQPLPATKDTVLAPLRMSQVRSLVIGLQNLLVQKDPLLSQACVGCLEALLDYLDARSPDIALHVASQPWNRFLLFTLLDAGENSFLRPEILRLMTLFMRYRSSSVLSHEEVGDVLQGVALADLSTLSNTTLQALHGFFQQLQSMGHLADHSMAQTLQASLEGLPPSTSSGQPPLQDMLCLGGVAVSLSHIRN
B2: Aspartate beta-hydroxylase isoform a (enzyme, UniProt Q12797-1 1-758)
chain: MAQRKNAKSSGNSSSSGSGSGSTSAGSSSPGARRETKHGGHKNGRKGGLSGTSFFTWFMVIALLGVWTSVAVVWFDLVDYEEVLGKLGIYDADGDGDFDVDDAKVLLGLKERSTSEPAVPPEEAEPHTEPEEQVPVEAEPQNIEDEAKEQIQSLLHEMVHAEHVEGEDLQQEDGPTGEPQQEDDEFLMATDVDDRFETLEPEVSHEETEHSYHVEETVSQDCNQDMEEMMSEQENPDSSEPVVEDERLHHDTDDVTYQVYEEQAVYEPLENEGIEITEVTAPPEDNPVEDSQVIVEEVSIFPVEEQQEVPPETNRKTDDPEQKAKVKKKKPKLLNKFDKTIKAELDAAEKLRKRGKIEEAVNAFKELVRKYPQSPRARYGKAQCEDDLAEKRRSNEVLRGAIETYQEVASLPDVPADLLKLSLKRRSDRQQFLGHMRGSLLTLQRLVQLFPNDTSLKNDLGVGYLLIGDNDNAKKVYEEVLSVTPNDGFAKVHYGFILKAQNKIAESIPYLKEGIESGDPGTDDGRFYFHLGDAMQRVGNKEAYKWYELGHKRGHFASVWQRSLYNVNGLKAQPWWTPKETGYTELVKSLERNWKLIRDEGLAVMDKAKGLFLPEDENLREKGDWSQFTLWQQGRRNENACKGAPKTCTLLEKFPETTGCRRGQIKYSIMHPGTHVWPHTGPTNCRLRMHLGLVIPKEGCKIRCANETKTWEEGKVLIFDDSFEHEVWQDASSFRLIFIVDVWHPELTPQQRRSLPAI
B3: Myosin binding protein C, fast type (protein, UniProt Q14324 1-1141)
chain: MPEAKPAAKKAPKGKDAPKGAPKEAPPKEAPAEAPKEAPPEDQSPTAEEPTGVFLKKPDSVSVETGKDAVVVAKVNGKELPDKPTIKWFKGKWLELGSKSGARFSFKESHNSASNVYTVELHIGKVVLGDRGYYRLEVKAKDTCDSCGFNIDVEAPRQDASGQSLESFKRTSEKKSDTAGELDFSGLLKKREVVEEEKKKKKKDDDDLGIPPEIWELLKGAKKSEYEKIAFQYGITDLRGMLKRLKKAKVEVKKSAAFTKKLDPAYQVDRGNKIKLMVEISDPDLTLKWFKNGQEIKPSSKYVFENVGKKRILTINKCTLADDAAYEVAVKDEKCFTELFVKEPPVLIVTPLEDQQVFVGDRVEMAVEVSEEGAQVMWMKDGVELTREDSFKARYRFKKDGKRHILIFSDVVQEDRGRYQVITNGGQCEAELIVEEKQLEVLQDIADLTVKASEQAVFKCEVSDEKVTGKWYKNGVEVRPSKRITISHVGRFHKLVIDDVRPEDEGDYTFVPDGYALSLSAKLNFLEIKVEYVPKQEPPKIHLDCSGKTSENAIVVVAGNKLRLDVSITGEPPPVATWLKGDEVFTTTEGRTRIEKRVDCSSFVIESAQREDEGRYTIKVTNPVGEDVASIFLQVVDVPDPPEAVRITSVGEDWAILVWEPPMYDGGKPVTGYLVERKKKGSQRWMKLNFEVFTETTYESTKMIEGILYEMRVFAVNAIGVSQPSMNTKPFMPIAPTSEPLHLIVEDVTDTTTTLKWRPPNRIGAGGIDGYLVEYCLEGSEEWVPANTEPVERCGFTVKNLPTGARILFRVVGVNIAGRSEPATLAQPVTIREIAEPPKIRLPRHLRQTYIRKVGEQLNLVVPFQGKPRPQVVWTKGGAPLDTSRVHVRTSDFDTVFFVRQAARSDSGEYELSVQIENMKDTATIRIRVVEKAGPPINVMVKEVWGTNALVEWQAPKDDGNSEIMGYFVQKADKKTMEWFNVYERNRHTSCTVSDLIVGNEYYFRVYTENICGLSDSPGVSKNTARILKTGITFKPFEYKEHDFRMAPKFLTPLIDRVVVAGYSAALNCAVRGHPKPKVVWMKNKMEIREDPKFLITNYQGVLTLNIRRPSPFDAGTYTCRAVNELGEALAECKLEVRVPQ
B4: Synaptojanin 2A (enzyme, UniProt O15056-3 1-1288)
chain: MALSKGLRLLGRLGAEGDCSVLLEARGRDDCLLFEAGTVATLAPEEKEVIKGQYGKLTDAYGCLGELRLKSGGTSLSFLVLVTGCTSVGRIPDAEIYKITATDFYPLQEEAKEEERLIALKKILSSGVFYFSWPNDGSRFDLTVRTQKQGDDSSEWGNSFFWNQLLHVPLRQHQVSCCDWLLKIICGVVTIRTVYASHKQAKACLVSRVSCERTGTRFHTRGVNDDGHVSNFVETEQMIYMDDGVSSFVQIRGSVPLFWEQPGLQVGSHHLRLHRGLEANAPAFDRHMVLLKEQYGQQVVVNLLGSRGGEEVLNRAFKKLLWASCHAGDTPMINFDFHQFAKGGKLEKLETLLRPQLKLHWEDFDVFTKGENVSPRFQKGTLRMNCLDCLDRTNTVQSFIALEVLHLQLKTLGLSSKPIVDRFVESFKAMWSLNGHSLSKVFTGSRALEGKAKVGKLKDGARSMSRTIQSNFFDGVKQEAIKLLLVGDVYGEEVADKGGMLLDSTALLVTPRILKAMTERQSEFTNFKRIRIAMGTWNVNGGKQFRSNVLRTAELTDWLLDSPQLSGATDSQDDSSPADIFAVGFEEMVELSAGNIVNASTTNKKMWGEQLQKAISRSHRYILLTSAQLVGVCLYIFVRPYHVPFIRDVAIDTVKTGMGGKAGNKGAVGIRFQFHSTSFCFICSHLTAGQSQVKERNEDYKEITQKLCFPMGRNVFSHDYVFWCGDFNYRIDLTYEEVFYFVKRQDWKKLLEFDQLQLQKSSGKIFKDFHEGAINFGPTYKYDVGSAAYDTSDKCRTPAWTDRVLWWRKKHPFDKTAGELNLLDSDLDVDTKVRHTWSPGALQYYGRAELQASDHRPVLAIVEVEVQEVDVGARERVFQEVSSFQGPLDATVVVNLQSPTLEEKNEFPEDLRTELMQTLGSYGTIVLVRINQGQMLVTFADSHSALSVLDVDGMKVKGRAVKIRPKTKDWLKGLREEIIRKRDSMAPVSPTANSCLLEENFDFTSLDYESEGDILEDDEDYLVDEFNQPGVSDSELGGDDLSDVPGPTALAPPSKSPALTKKKQHPTYKDDADLVELKRELEAVGEFRHRSPSRSLSVPNRPRPPQPPQRPPPPTGLMVKKSASDASISSGTHGQYSILQTARLLPGAPQQPPKARTGISKPYNVKQIKTTNAQEAEAAIRCLLEARGGASEEALSAVAPRDLEASSEPEPTPGAAKPETPQAPPLLPRRPPPRVPAIKKPTLRRTGKIVFCSRSQASQPCLLLQRHEFVRTVAAQRLASVDTSGSSV

What follows are binders tested against 3XFLAG-TEV-CBP-Cul3 (human) (UniProt Q13618) (assay: affinity purification with mass spectrometry; tandem affinity purification of 3XFLAG-TEV-CBP-Cul3 from lysate of transfected HEK293 cells (RIPA buffer): anti-FLAG M2 beads, TEV cleavage, calmodulin beads, elution with EGTA; MudPIT LC/MS-MS; proteins also found with 3XFLAG-TEV-CBP-actin removed).
B1 was tested, and the binding was “binds”. With B2 the binding was “binds”. With B3 the binding was “binds”. With B4 the binding was “binds”.

From PMC4107866
